For one molecule, binding results are on record in article PMC11131071.

This assay concerns the target T1, ABCG2 (human (endogenous in MCF-7/MX and H460/MX)) (UniProt Q9UNQ0).
T1 sequence: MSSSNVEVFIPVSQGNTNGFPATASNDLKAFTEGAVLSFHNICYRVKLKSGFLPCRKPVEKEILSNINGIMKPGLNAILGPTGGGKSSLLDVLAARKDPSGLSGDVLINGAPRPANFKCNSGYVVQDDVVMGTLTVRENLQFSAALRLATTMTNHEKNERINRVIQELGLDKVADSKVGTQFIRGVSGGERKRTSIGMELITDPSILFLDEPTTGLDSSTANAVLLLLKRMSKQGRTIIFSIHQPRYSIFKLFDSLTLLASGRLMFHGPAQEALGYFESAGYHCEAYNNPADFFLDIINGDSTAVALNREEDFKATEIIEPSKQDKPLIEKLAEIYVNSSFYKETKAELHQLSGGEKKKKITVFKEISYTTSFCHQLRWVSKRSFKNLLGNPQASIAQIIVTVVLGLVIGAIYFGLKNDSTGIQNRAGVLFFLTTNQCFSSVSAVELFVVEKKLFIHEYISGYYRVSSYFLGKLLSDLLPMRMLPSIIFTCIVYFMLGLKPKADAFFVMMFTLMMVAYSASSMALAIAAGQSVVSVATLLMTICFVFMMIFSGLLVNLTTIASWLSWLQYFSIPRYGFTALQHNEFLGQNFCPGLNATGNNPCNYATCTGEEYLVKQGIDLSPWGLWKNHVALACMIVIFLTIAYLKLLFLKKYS
Put plainly: affinity purification with mass spectrometry; lysates of MCF-7 and MCF-7/MX cells immunoprecipitated with the anti-ABCG2 antibody MXP-21; SDS-PAGE, silver staining; bands predominant in MCF-7/MX excised and analysed by mass spectrometry.

These are yes or no findings as the source states them, for the method shown. In cells and extracts the contact can be indirect. A yes stands for co-enrichment or nearness to the bait. Other partners may have been found.

B1: SLC1A5 (protein, UniProt Q15758 1-541)
chain: MVADPPRDSKGLAAAEPTANGGLALASIEDQGAAAGGYCGSRDQVRRCLRANLLVLLTVVAVVAGVALGLGVSGAGGALALGPERLSAFVFPGELLLRLLRMIILPLVVCSLIGGAASLDPGALGRLGAWALLFFLVTTLLASALGVGLALALQPGAASAAINASVGAAGSAENAPSKEVLDSFLDLARNIFPSNLVSAAFRSYSTTYEERNITGTRVKVPVGQEVEGMNILGLVVFAIVFGVALRKLGPEGELLIRFFNSFNEATMVLVSWIMWYAPVGIMFLVAGKIVEMEDVGLLFARLGKYILCCLLGHAIHGLLVLPLIYFLFTRKNPYRFLWGIVTPLATAFGTSSSSATLPLMMKCVEENNGVAKHISRFILPIGATVNMDGAALFQCVAAVFIAQLSQQSLDFVKIITILVTATASSVGAAGIPAGGVLTLAIILEAVNLPVDHISLILAVDWLVDRSCTVLNVEGDALGAGLLQNYVDRTESRSTEPELIQVKSELPLDPLPVPTEEGNPLLKHYRGPAGDATVASEKESVM
Take B1: the binding entry is “binds”.
